In US20130203822A1, “COMPOUNDS FOR TREATMENT OF TUMORS BEARING D[…] ONCOPROTEINS” (priority 2010, published 2013):
Where a name gives a salt, the structure may show the parent alone. At least one compound was matched to its structure with a doubt left.

Tested on: MYCN 3′UTR
Experiment: luciferase reporter screening and counter-screening in CHP134-MYCN and CHP134-CTRL stable clones
Type: cell-based, human
Details: 2 uM, 24 h; CHP134-MYCN#3 versus CHP134-CTRL#19
Description: Reporter constructs containing the firefly luciferase reporter gene under the control of the CMV viral promoter and followed by either the whole MYCN 3′UTR (pGL4.26-MYCN3UTR) or the only SV40 poly(A) region (pGL4.26-CTRL) as a control were produced as disclosed above.
The CHP134 neuroblastoma cell line was used to generate stable transfection clones as disclosed in Example 3.
The screening was carried out in the CHP134-MYCN#3 stable clone with the Spectrum Collection small molecule library (MicroSource Discovery) composed of 2000 compounds stored at 10 mM in DMSO: 800 drugs that have been introduced in the US, 200 drugs that are limited in use to Europe and Japan, 580 natural products, 420 compounds with reported biological activities.
The assay was run in triplicates in 96-well plates. CHP134-MYCN stable clone cells were trypsinized, harvested and resuspended in culture medium. Tecan Multichannel arm (MCA96) of a Tecan EVO 200 robot (Tecan) was used to add 150 uL containing 15000 cells to the 96-well white CulturePlate-96 (Perkin Elmer). […]
Luciferase activity was assessed using OneGlow Luciferase assay (Promega) according to the manufacturer's method, after 24 h of incubation at 37° with 5% CO2 and 100% relative humidity. Luminescence signal was read on a Tecan F200 multiplate reader (Tecan) integrated with the robot. […]

Compound: COc1cccc2c1C(=O)c1c(O)c3c(c(O)c1C2=O)C[C@@](O)(C(=O)CO)C[C@@H]3O[C@H]1C[C@H](N)[C@@H](O)[C@H](C)O1 [epirubicin, EPIRUBICIN HYDROCHLORIDE]
- dependence of luciferase reporter upregulation on MYCN 3′UTR (counter-screening): truly dependent on MYCN 3′UTR
